Consider nine compounds from the supplement of paper PMC10689618.

Holding throughout (details): 24 h
The subject of experiment [1] is Human fetal astrocytes. The experiment is described as follows: loss of total cells relative to no-compound high-control median (toxicity); higher = more toxic (fewer cells).
The test system of experiment [2] is Human fetal astrocytes. The description is as above. This is another data set of the same source.
Experiment [3] concerns Human fetal astrocytes. Nature of the experiment: synaptosome phagocytosis (pHrodo/calcein intensity ratio) relative to plate median of data wells; higher = more phagocytosis.
The test system of experiment [4] is Human fetal astrocytes. Described as above. This is another data set of the same source.

Each structure is given as a SMILES string. Where a name gives a salt, the structure may show the parent alone. The list shows a part of the results. Repeats are few or missing, and single values can be far off.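 Primary human fetal astrocytes engulfed labelled rat cortical synaptosomes, measured as a red/green ratio corrected for calcein live-cell signal and scaled to the plate median. Toxicity meant calcein falling over 30%; decreased phagocytosis meant below 70% of median above 5 µM.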

Turning to `CC(C)c1cccc(C(C)C)c1O` [Propofol], the “loss of total cells” value in the experiment with Human fetal astrocytes [1] (1.39 µM) is -13%; with Human fetal astrocytes [1] (2.78 µM), 9.4%; in the experiment on Human fetal astrocytes [1] (5.56 µM) it was -4.1%; with Human fetal astrocytes [1] (11.11 µM), -1.3%; in the experiment with Human fetal astrocytes [1] (22.22 µM), -12.8%; with Human fetal astrocytes [2] (1.39 µM), -9.1%. Besides, the “loss of total cells” value was -5.8% with Human fetal astrocytes [2] (2.78 µM), 8.1% with Human fetal astrocytes [2] (5.56 µM), 0.8% with Human fetal astrocytes [2] (11.11 µM) and 8.5% in the experiment on Human fetal astrocytes [2] (22.22 µM). Moreover, the synaptosome phagocytosis was 109% in the experiment on Human fetal astrocytes [3] (1.39 µM); 105% with Human fetal astrocytes [3] (2.78 µM); 109% with Human fetal astrocytes [3] (5.56 µM); 113% in the experiment on Human fetal astrocytes [3] (11.11 µM); 88.5% in the experiment on Human fetal astrocytes [3] (22.22 µM); 99.5% in the experiment with Human fetal astrocytes [4] (1.39 µM). Besides, the synaptosome phagocytosis was 91.1% with Human fetal astrocytes [4] (2.78 µM), 98.3% with Human fetal astrocytes [4] (5.56 µM), 122% in the experiment with Human fetal astrocytes [4] (11.11 µM) and 91.9% in the experiment with Human fetal astrocytes [4] (22.22 µM).

Regarding `CC(C)=CCC[C@]1(C)C=Cc2c(O)c3c(c(CC=C(C)C)c2O1)O[C@]12C(=C[C@@H]4C[C@H]1C(C)(C)O[C@@]2(C/C=C(/C)C(=O)O)C4=O)C3=O`, the “loss of total cells” value was -16.3% in the experiment with Human fetal astrocytes [2] (1.39 µM); 15.9% with Human fetal astrocytes [2] (2.78 µM); 63.4% with Human fetal astrocytes [2] (5.56 µM); 98.7% in the experiment with Human fetal astrocytes [2] (11.11 µM); 99.6% with Human fetal astrocytes [2] (22.22 µM). In addition, the synaptosome phagocytosis with Human fetal astrocytes [3] (1.39 µM) is 38.2%; in the experiment with Human fetal astrocytes [3] (2.78 µM), 23.2%; in the experiment on Human fetal astrocytes [3] (5.56 µM), 5.4%; in the experiment on Human fetal astrocytes [3] (11.11 µM), 0%; in the experiment on Human fetal astrocytes [3] (22.22 µM), 0%.

As to `COc1cc([C@@H]2c3cc4c(cc3[C@@H](O)[C@H]3COC(=O)[C@H]23)OCO4)cc(OC)c1O`, the “loss of total cells” value in the experiment on Human fetal astrocytes [2] (1.39 µM) stood at 3.3%; in the experiment on Human fetal astrocytes [2] (2.78 µM) it was 11.9%; with Human fetal astrocytes [2] (5.56 µM), 12.5%; in the experiment on Human fetal astrocytes [2] (11.11 µM), 22.3%; in the experiment on Human fetal astrocytes [2] (22.22 µM) it was 23%. Further, the synaptosome phagocytosis with Human fetal astrocytes [3] (1.39 µM) is 108%; with Human fetal astrocytes [3] (2.78 µM), 50.1%; in the experiment on Human fetal astrocytes [3] (5.56 µM), 120%; with Human fetal astrocytes [3] (11.11 µM) it was 77.1%; with Human fetal astrocytes [3] (22.22 µM), 60.7%.

Consider `C/C=C(\C)C(=O)O[C@H]1C[C@@H](OC(C)=O)[C@@]2(C(=O)OC)CO[C@H]3[C@@H](O)[C@@](C)([C@]45O[C@@]4(C)[C@@H]4C[C@H]5O[C@@H]5OC=C[C@@]54O)[C@H]4[C@]1(CO[C@]4(O)C(=O)OC)[C@@H]32` [Azadirachtin A], for which the “loss of total cells” value with Human fetal astrocytes [2] (1.39 µM) was -9.8%; with Human fetal astrocytes [2] (2.78 µM), -2.5%; in the experiment with Human fetal astrocytes [2] (5.56 µM), 16.8%; in the experiment with Human fetal astrocytes [2] (11.11 µM), 2%; in the experiment with Human fetal astrocytes [2] (22.22 µM), 17.8%. Also, the synaptosome phagocytosis was 117% in the experiment with Human fetal astrocytes [3] (1.39 µM); 145% in the experiment on Human fetal astrocytes [3] (2.78 µM); 106% in the experiment with Human fetal astrocytes [3] (5.56 µM); 133% with Human fetal astrocytes [3] (11.11 µM); 144% with Human fetal astrocytes [3] (22.22 µM).

Take `Cc1ncc(CNC(=O)N(CCCl)N=O)c(N)n1` [Nimustine hydrochloride]: the “loss of total cells” value was -14.7% in the experiment with Human fetal astrocytes [1] (1.39 µM); 1.4% in the experiment with Human fetal astrocytes [1] (2.78 µM); 3.3% in the experiment with Human fetal astrocytes [1] (5.56 µM); 12.4% in the experiment with Human fetal astrocytes [1] (11.11 µM); 4.7% in the experiment on Human fetal astrocytes [1] (22.22 µM); 0.4% with Human fetal astrocytes [2] (1.39 µM). The “loss of total cells” value is 9% in the experiment with Human fetal astrocytes [2] (2.78 µM), -1.4% in the experiment on Human fetal astrocytes [2] (5.56 µM), 8.8% with Human fetal astrocytes [2] (11.11 µM) and -3% in the experiment on Human fetal astrocytes [2] (22.22 µM). The synaptosome phagocytosis in the experiment on Human fetal astrocytes [3] (1.39 µM) was 127%; with Human fetal astrocytes [3] (2.78 µM), 113%; in the experiment with Human fetal astrocytes [3] (5.56 µM), 119%; in the experiment with Human fetal astrocytes [3] (11.11 µM) it was 97%; in the experiment with Human fetal astrocytes [3] (22.22 µM), 115%; in the experiment on Human fetal astrocytes [4] (1.39 µM), 108%. Also, the synaptosome phagocytosis was 94.3% with Human fetal astrocytes [4] (2.78 µM), 98.4% with Human fetal astrocytes [4] (5.56 µM), 112% with Human fetal astrocytes [4] (11.11 µM) and 135% in the experiment on Human fetal astrocytes [4] (22.22 µM).

Consider `COc1cc2occc2c2oc(=O)ccc12`, for which the “loss of total cells” value is -0.4% in the experiment with Human fetal astrocytes [2] (1.39 µM); 18.6% in the experiment with Human fetal astrocytes [2] (2.78 µM); 1.5% with Human fetal astrocytes [2] (5.56 µM); 46.5% in the experiment on Human fetal astrocytes [2] (11.11 µM); -13.7% with Human fetal astrocytes [2] (22.22 µM). Moreover, the synaptosome phagocytosis with Human fetal astrocytes [3] (1.39 µM) was 91.5%; with Human fetal astrocytes [3] (2.78 µM), 135%; in the experiment with Human fetal astrocytes [3] (5.56 µM) it was 80.9%; in the experiment with Human fetal astrocytes [3] (11.11 µM), 113%; in the experiment with Human fetal astrocytes [3] (22.22 µM), 96%.

As to `CN1CCc2cc3c(cc2C1O)OCO3` (stereo not given), the “loss of total cells” value is 10.5% in the experiment on Human fetal astrocytes [2] (1.39 µM); -1.1% in the experiment with Human fetal astrocytes [2] (2.78 µM); 3.6% in the experiment on Human fetal astrocytes [2] (5.56 µM); 2.1% in the experiment with Human fetal astrocytes [2] (11.11 µM); 2.3% with Human fetal astrocytes [2] (22.22 µM). Also, the synaptosome phagocytosis in the experiment with Human fetal astrocytes [3] (1.39 µM) is 86.9%; in the experiment on Human fetal astrocytes [3] (2.78 µM) it was 98.4%; in the experiment with Human fetal astrocytes [3] (5.56 µM), 102%; in the experiment on Human fetal astrocytes [3] (11.11 µM), 114%; with Human fetal astrocytes [3] (22.22 µM) it was 116%.

With `O=[N+]([O-])O[C@@H]1CO[C@H]2[C@@H]1OC[C@@H]2O`, the “loss of total cells” value in the experiment with Human fetal astrocytes [2] (1.39 µM) is -43.5%; in the experiment with Human fetal astrocytes [2] (2.78 µM), -19.8%; with Human fetal astrocytes [2] (5.56 µM) it was 0.6%; with Human fetal astrocytes [2] (11.11 µM) it was 13.4%; in the experiment with Human fetal astrocytes [2] (22.22 µM) it was 12.1%. The synaptosome phagocytosis was 98.7% in the experiment on Human fetal astrocytes [3] (1.39 µM); 114% in the experiment with Human fetal astrocytes [3] (2.78 µM); 104% in the experiment on Human fetal astrocytes [3] (5.56 µM); 100% in the experiment on Human fetal astrocytes [3] (11.11 µM); 119% with Human fetal astrocytes [3] (22.22 µM).

For `COc1cc(OC)c(OC)cc1C=O`, the “loss of total cells” value in the experiment with Human fetal astrocytes [2] (1.39 µM) was 10.5%; with Human fetal astrocytes [2] (2.78 µM) it was 8%; in the experiment with Human fetal astrocytes [2] (5.56 µM), -7.6%; in the experiment on Human fetal astrocytes [2] (11.11 µM), 29.7%; in the experiment on Human fetal astrocytes [2] (22.22 µM), -2.6%. Also, the synaptosome phagocytosis is 116% with Human fetal astrocytes [3] (1.39 µM); 111% with Human fetal astrocytes [3] (2.78 µM); 111% in the experiment on Human fetal astrocytes [3] (5.56 µM); 130% in the experiment on Human fetal astrocytes [3] (11.11 µM); 103% in the experiment with Human fetal astrocytes [3] (22.22 µM).
